{"source": "paper PMC2830194", "binders": {"B1": {"name": "His-Cpn0706 (protein, UniProt Q9Z7J9 1-168)", "chain": "MAKYPLEPVLAIKKDRVDRAEKVVKEKRRLLEIEQEKLREKEAERDKVKNHYMQKIQQLRDLLDEGTTSDAVLQIKSYIKVVAVQLSEEEEKVNKQKEVVLAASKELEKAEVNLAKRRKEEEKTRLHKEEWMKEALKEEARAEEKEQDEMGQLLFQLRQKKKRESGGS"}}, "target": "Full length GST-FliI (C. pneumoniae)", "assay": "pull-down; only the target purified", "note": "Results are given in words; binding and its absence hold for the method and conditions named. Binding seen in cells or lysates may run through a third protein. Tags and fused reporters may be left off the sequences shown."}
{"binder": "B1", "values": [{"measurement": "binding", "value": "no binding"}]}
